Five molecules from patent US20240182551A1 can be followed below.

For the assay, the target named is HCoV-229E full-length spike expressed on HEK293T cell surface (HCoV-229E). Description: CELISA on 293T cells (FIG. 4A); ELISA/BLI (FIG. 12).

Substitutions are numbered along the chain they refer to. These are yes or no findings as the source states them, for the method shown.

B1: CC9.3 (IgG) (antibody, V domains shown)
VH: QVQLQESGPGLVKPSETLSLTCTVSGGSIRSDFWSWIRQFPGKGLEWIGYIYYSGSTNYNPSLESRVTISVDTSKNEFSLKLNYVTAADTAIYYCARETRWNWLDSWGQGTLVTVSS
VL: DIVMTQSPDSLAVSLGERASINCKSSQTISYISNNKNYLAWYQQKPGQPPRLLIYWASTRESGVPDRFSGGGFGTDFTLTISSLQAEDVAVYYCQQYFNTPWTFGQGTKVEIK
As for B1, the binding result is “no binding”.

B2: CC40.8 (IgG) (antibody, V domains shown)
VH: EVQLLESGGGLVQPGGSLRLSCAASGFTFSSYVMTWARQAPGKGLEWVSAISGTGYTYYADSVKGRFTVSRDNSKNTLFLQMSSLRAEDTAVYYCAITMAPVVWGQGTTVTVSS
VL: SYELTQPPSVSVSPGQTARITCSGDALPKRYAYWYQQKSGQAPILVIYEDKKRPSGIPERLSGSKSGTVATLTISGAQVEDEADYYCYSTDSSGNHAVFGGGTQLTVL
As to B2, the binding result is recorded as “no binding”.

B3: CC9.1 (IgG) (antibody, V domains shown)
VH: EVQLVESGGGLVQPGRSLRLSCVAPGFTLGGYGMHWVRQAPGKGLEWVGLISYDGSVQKYGSSVKGRFTISKDNSKNTLYLEMNSLRADDTAVYFCVKGASLGDNWGQGTLVTVSS
VL: EIVMTQSPLSLPVTLGQPASISCRSSQSLVYSDGDTYMSWFHQRPGQSPRRLIYKVSNRDSGVPDRFSGSGSGTDFTLKISRVEAEDVGVYYCMQGTHWPYTFGPGTKVEIK
For B3, the binding entry is listed as “no binding”.

B4: CC9.2 (IgG) (antibody, V domains shown)
VH: B3 VH
VL: B3 VL with S61F
As to B4, the binding entry was “no binding”.

B5: CC40.5 (IgG) (antibody, V domains shown)
VH: EVQLVESGGGVVQPGRSLRLSCVASGFTFSNYGMHWVRQAPGKGLEWVAVMSYDGSVTYYGDSVRGRFTISRDNSKNTLYLQMSSLRTDDTGVYYCAKGQPLDDIWGLGTLVTVSS
VL: EIVMTQSPLSLPVSLGQSASISCRSSQSLVHTDGITYLSWFQQRPGQSPRRLLYKVSNRDSGVPDRFSGSGSGTDFTLKISRVEAEDVGVYYCLQGTYWPWTFGQGTKVEIK
As to B5, the binding entry was “no binding”.
